# Laboratory results taken from the M2OR odorant receptor database.
# The list shows a part of the results, in another mix than the full data. The calls were merged from several studies; some rest on single wells.
# How the values were obtained:
# Conditions in all cases: stereoisomer not certain
# [1] = molecular target: T1, OR10A5 (Homo sapiens) (UniProt Q9H207)
# T1 sequence (whole entry): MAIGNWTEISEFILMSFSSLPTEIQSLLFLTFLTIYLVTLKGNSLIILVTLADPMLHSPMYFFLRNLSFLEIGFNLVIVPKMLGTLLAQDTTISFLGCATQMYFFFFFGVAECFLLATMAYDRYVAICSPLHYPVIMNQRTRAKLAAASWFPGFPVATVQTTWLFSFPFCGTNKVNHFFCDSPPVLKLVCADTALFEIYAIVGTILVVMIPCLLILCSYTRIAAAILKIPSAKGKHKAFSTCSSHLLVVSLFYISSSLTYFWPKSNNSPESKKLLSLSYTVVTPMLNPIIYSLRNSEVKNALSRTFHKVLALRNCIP
# How it was run: (§1)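 Transient luciferase assays in mammalian cell lines were common, though methods varied by source. The values come from published papers and their supplementary material, with extra details from the original authors when needed. Responsive refers to a measured signal the original authors judged statistically different from baseline, and non-responsive (inactive) to the remainder.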
# [2] = molecular target: T2, OR10A6 (Homo sapiens) (UniProt Q8NH74)
# T2 sequence (whole entry): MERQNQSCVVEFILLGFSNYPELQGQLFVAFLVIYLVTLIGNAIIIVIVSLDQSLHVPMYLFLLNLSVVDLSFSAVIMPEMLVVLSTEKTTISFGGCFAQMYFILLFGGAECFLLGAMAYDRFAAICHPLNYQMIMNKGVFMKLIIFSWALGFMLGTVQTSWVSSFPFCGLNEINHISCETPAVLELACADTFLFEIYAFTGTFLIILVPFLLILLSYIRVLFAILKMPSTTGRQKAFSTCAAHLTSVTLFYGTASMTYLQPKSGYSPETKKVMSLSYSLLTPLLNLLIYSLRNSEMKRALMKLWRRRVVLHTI
# How it was run: as §1
# [3] = molecular target: T3, OR10A7 (Homo sapiens) (UniProt Q8NGE5)
# T3 sequence (whole entry): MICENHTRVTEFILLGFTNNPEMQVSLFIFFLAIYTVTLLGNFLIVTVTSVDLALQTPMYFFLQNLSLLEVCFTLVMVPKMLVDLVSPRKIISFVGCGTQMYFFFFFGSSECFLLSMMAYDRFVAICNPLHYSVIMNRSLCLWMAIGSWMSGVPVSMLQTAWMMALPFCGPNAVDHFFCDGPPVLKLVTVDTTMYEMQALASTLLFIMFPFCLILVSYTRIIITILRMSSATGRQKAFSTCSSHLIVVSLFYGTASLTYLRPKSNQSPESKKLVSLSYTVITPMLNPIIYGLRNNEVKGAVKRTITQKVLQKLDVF
# How it was run: as §1
# [4] = molecular target: T4, OR10AG1 (Homo sapiens) (UniProt Q8NH19)
# T4 sequence (whole entry): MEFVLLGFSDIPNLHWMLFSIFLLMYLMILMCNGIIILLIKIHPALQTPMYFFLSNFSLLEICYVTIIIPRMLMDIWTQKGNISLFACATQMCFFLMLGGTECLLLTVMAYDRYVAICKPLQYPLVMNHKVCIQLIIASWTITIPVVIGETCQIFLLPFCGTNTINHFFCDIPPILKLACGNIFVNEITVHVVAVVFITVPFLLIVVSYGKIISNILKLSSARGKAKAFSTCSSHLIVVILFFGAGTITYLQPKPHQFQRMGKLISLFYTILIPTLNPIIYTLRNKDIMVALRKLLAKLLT
# How it was run: as §1
# [5] = molecular target: T5, OR10C1 (Homo sapiens) (UniProt Q96KK4)
# T5 sequence (whole entry): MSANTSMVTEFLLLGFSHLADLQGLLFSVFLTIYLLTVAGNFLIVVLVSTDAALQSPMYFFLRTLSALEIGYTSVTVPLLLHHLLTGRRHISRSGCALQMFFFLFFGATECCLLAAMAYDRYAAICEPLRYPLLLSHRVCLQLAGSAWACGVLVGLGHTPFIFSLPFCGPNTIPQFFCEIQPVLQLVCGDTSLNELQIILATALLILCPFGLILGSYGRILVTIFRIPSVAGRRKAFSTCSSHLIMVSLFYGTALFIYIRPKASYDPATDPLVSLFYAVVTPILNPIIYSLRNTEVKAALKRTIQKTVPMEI
# How it was run: as §1
# [6] = molecular target: T6, OR10G6 (Homo sapiens) (UniProt Q8NH81)
# T6 sequence (whole entry): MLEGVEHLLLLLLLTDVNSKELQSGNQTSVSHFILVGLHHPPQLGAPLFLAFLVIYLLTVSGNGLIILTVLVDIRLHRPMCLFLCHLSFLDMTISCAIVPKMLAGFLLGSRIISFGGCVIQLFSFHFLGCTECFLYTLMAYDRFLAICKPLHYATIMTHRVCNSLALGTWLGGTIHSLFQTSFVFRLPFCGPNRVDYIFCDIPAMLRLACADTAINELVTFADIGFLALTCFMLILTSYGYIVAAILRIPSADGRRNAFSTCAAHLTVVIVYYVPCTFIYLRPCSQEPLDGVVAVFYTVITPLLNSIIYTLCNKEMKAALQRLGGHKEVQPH
# How it was run: as §1
# [7] = molecular target: T7, OR10G7 (Homo sapiens) (UniProt Q8NGN6)
# T7 sequence (whole entry): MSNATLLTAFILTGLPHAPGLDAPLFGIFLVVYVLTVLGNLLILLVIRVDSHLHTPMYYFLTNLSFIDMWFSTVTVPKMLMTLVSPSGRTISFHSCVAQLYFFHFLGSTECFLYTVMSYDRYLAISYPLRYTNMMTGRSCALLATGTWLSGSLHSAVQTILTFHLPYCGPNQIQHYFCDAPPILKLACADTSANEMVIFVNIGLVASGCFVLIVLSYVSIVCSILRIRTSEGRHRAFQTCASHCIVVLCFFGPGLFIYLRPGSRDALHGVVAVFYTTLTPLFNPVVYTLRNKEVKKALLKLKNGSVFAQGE
# How it was run: as §1
# 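Further: active if original authors judged signal statistically different from baseline.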
Compound,odorant receptor agonist call [1],odorant receptor agonist call [2],odorant receptor agonist call [3],odorant receptor agonist call [4],odorant receptor agonist call [5],odorant receptor agonist call [6],odorant receptor agonist call [7]
CCCCCCCCCCC=O,inactive,inactive,inactive,inactive,inactive,inactive,inactive
CCCCCCCC=CC=O,inactive,inactive,inactive,inactive,inactive,inactive,active
CC(C)(O)CCCC1=CCC(C=O)CC1 (stereo unspecified),active,,,,,,inactive
COc1ccccc1O,inactive,inactive,inactive,inactive,active,inactive,active
C=CCSCC=C,inactive,inactive,inactive,inactive,inactive,inactive,inactive
CC(C)=CCCC(C)=CC=O,active,inactive,inactive,inactive,inactive,inactive,inactive
CCCC(=O)O,inactive,inactive,inactive,inactive,inactive,inactive,inactive
CC(=O)OCC=C(C)CCC=C(C)C,inactive,active,inactive,inactive,inactive,inactive,active
CC=Cc1ccc(O)c(OC)c1,active,active,inactive,inactive,inactive,inactive,active
CC1COCc2cc3c(cc21)C(C)(C)C(C)C3(C)C (stereo unspecified),inactive,active,active,active,active,active,active
C=C(C)C1CCC2=CC(=O)CC(C)C2(C)C1 (stereo unspecified),active,inactive,,,inactive,,inactive
COC(=O)c1ccccc1O,inactive,inactive,inactive,inactive,inactive,inactive,active
CC(=O)c1ccccc1,,inactive,inactive,inactive,inactive,inactive,
CC1=NC(C)SC1C (stereo unspecified),,inactive,inactive,active,inactive,active,
CC12C=CCC1C1CCC3=CC(=O)CCC3(C)C1CC2 (stereo unspecified),inactive,inactive,inactive,inactive,inactive,inactive,active
c1ccc(Oc2ccccc2)cc1,inactive,inactive,inactive,inactive,inactive,inactive,inactive
O=C1CCCCC1,,inactive,inactive,inactive,inactive,active,
COC(=O)c1ccccc1,,inactive,inactive,inactive,inactive,inactive,
CCCCCCCC=O,inactive,inactive,inactive,inactive,inactive,inactive,active
CCCCO,inactive,inactive,inactive,inactive,inactive,inactive,inactive
CC(C)C=O,inactive,inactive,inactive,inactive,inactive,inactive,active
CCCCCC(C)=O,,inactive,inactive,active,inactive,inactive,
CC(C)C(=O)O,inactive,inactive,inactive,inactive,inactive,inactive,active
CC12CCC(CC1)C(C)(C)O2,inactive,inactive,inactive,inactive,inactive,inactive,active
C=CCc1ccc(OC)c(OC)c1,inactive,inactive,inactive,inactive,inactive,inactive,active
O=C1CCCCCCCCCCCCCCO1,inactive,inactive,inactive,inactive,inactive,inactive,inactive
CCC1(O)C2(C)CCC(C2)C1(C)C (stereo unspecified),inactive,inactive,inactive,inactive,inactive,inactive,active

# Quoted from the listing:
# odorant receptor agonist call [4], CCCCO is entered as inactive
# odorant receptor agonist call [4], CCCCCCCCCCC=O is entered as inactive
